Test results published in article PMC9334269.
No constants are given. Whether binding was seen depends on the method and setting. Binding seen in cells or lysates may run through a third protein. Some results given as binding are weak or reduced against the parent protein; the word gives no strength.

Molecular target: T1, endogenous STING (RAW264.7 cells) (mouse (endogenous in RAW264.7)) (UniProt Q3TBT3)
T1 sequence: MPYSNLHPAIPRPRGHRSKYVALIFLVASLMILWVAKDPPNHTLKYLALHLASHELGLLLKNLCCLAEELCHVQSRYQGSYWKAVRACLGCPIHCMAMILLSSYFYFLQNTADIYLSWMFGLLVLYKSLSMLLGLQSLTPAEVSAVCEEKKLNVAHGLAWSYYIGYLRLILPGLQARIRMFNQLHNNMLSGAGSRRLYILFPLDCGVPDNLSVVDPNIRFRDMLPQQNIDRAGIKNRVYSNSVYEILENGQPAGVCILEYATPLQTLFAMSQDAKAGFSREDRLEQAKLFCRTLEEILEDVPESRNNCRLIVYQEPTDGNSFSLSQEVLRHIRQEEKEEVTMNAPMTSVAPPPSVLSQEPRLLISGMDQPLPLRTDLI
Assay: co-IP; IP of endogenous STING from RAW264.7 cells stimulated with CDA; immunoblot for NCOA4

B1: endogenous NCOA4 (RAW264.7 cells) (protein, UniProt Q5U4H9 1-625)
chain: MNTSLEQSGCYSNRETLLRCSDARRELELAIGGVLRAEQQIKDNLREVKAQIHSCISRHLECLRSREVWLNEQVDLIYQLKEETLQQQAQQLYWLMGQFNCLIHQLEYTQNKDLANQVSVCLERLGSLALKPEDSTVLLFEADTSALRQTITTFGSLKTIQIPEHLMAHASSSSIGPFLEKRGYIQVPEQKSASSGTAVSLSEWLLVSKPAIGLQAPYVPSTNPQDWLIPKQTSENSQTSARACSFFSDAWGNLKGLENWLLNSHQQEIAGKPSSSKCNSHCSTSSFSPEAEKAEDVELLDQDELDLSDWLVTPQEPCELEKPVDGSWETSEKFKLLFQVFREPYNVSDWLVKPDSCTNCQGNQPRGVEIENLGNLKCLNDHLEAKKSVSVPGATISDGWLAQNHQDTWKVEEVCKANEPCTSFAECVCDDNCEKEAMYKWLLKKGGKDKNGMPMEPKSEPEKHRESLTLWLCPSRNELTEQAKAPKAMAPARIADSFHVIKNSSLSEWLMGPTCKGGPKDVPNTEERAGKEMLQSSMATSWCPFNTADWVLPGKKVGSLSQFPSGEDKWLLRKKAQEAFLNSPLQEERNFRPDCYGLPAVCDLFACMQLKVDKEKWLYRTPLQM
binding: binds
